Laboratory results published in patent publication US20120269781A1, “METHOD FOR PROLIFERATING HAIR FOLLICLE STEM CELLS” (RNL BIO CO., LTD., priority 2009, published 2012).
For at least one compound, name, drawing or mass did not settle the structure.

Test system: androchronogecetic alopecia (B6CBAF1/j) mice
Assay: Treatment of alopecia in mouse model, hair loss induced with dihydrotestosterone
Type: in vivo
Settings: from 1-2 weeks after administration

Nc1cc(N2CCCCC2)nc(N)[n+]1[O-] [Minoxidil]
condition of hair loss compared to negative control group: significantly better
